Measured values taken from patent publication US9936703B2, “Condensed heterocyclic compound or salt thereof, agricultural and horticultural insecticide comprising the compound, and method for using the insecticide” (NIHON NOHYAKU CO., LTD., priority 2013, dated 2018).
Some entries share one result that the patent states for a list of compounds.

test system: Plutella xylostella; assay: Test of insecticidal effect on Plutella xylostella (dip of Chinese cabbage seedlings with laid eggs); type: in vivo; details: 500 ppm, seedlings with laid eggs dipped about 30 seconds, 25° C., 6 days after dip treatment

For `CCCn1c(-c2ccc(C(F)(F)F)cc2SCC)nc2cc(C(F)(F)F)nnc21` [Compound 2-1], which “insecticidal effect (corrected mortality rate), activity level” value (shortened to “insecticidal effect”) is on record?
The value was “A (the control rate is 100%)”.

With `CCSc1cc(C(F)(C(F)(F)F)C(F)(F)F)ccc1-c1nc2cc(C(F)(F)F)nnc2n1C` [Compound 1-64] as the compound, how does the “insecticidal effect” value read?
The value was “A (the control rate is 100%)”.

`CCS(=O)(=O)c1ccccc1-c1nc2cc(C(F)(F)C(F)(F)F)nnc2n1C` [Compound 5-3] was tested. Which “insecticidal effect” value did it give?
Its value is “A (the control rate is 100%)”.

With `Cn1c(-c2ccc(C(F)(F)F)cc2SC(F)(F)F)nc2cc(C(F)(F)F)nnc21` [Compound 3-1] as the compound, how does the “insecticidal effect” value read?
Its value is “A (the control rate is 100%)”.

Which “insecticidal effect” value does the source give for `CCCn1c(-c2ccc(C(F)(F)F)cc2[S+]([O-])CC)nc2cc(C(F)(F)F)nnc21` (stereo not shown) [Compound 2-2] here?
Its value is “A (the control rate is 100%)”.

test system: Myzus persicae; assay: Test of control effect on Myzus persicae (foliar application, potted Chinese cabbage); type: in vivo; details: 500 ppm, foliar application to potted Chinese cabbage, 6 days after application

With `CCSc1cc(C(F)(F)F)ccc1-c1nc2cc(SC(C)(C)C)nnc2n1C` [Compound 5-13] as the compound, how does the “control effect (control rate), activity level” value (shortened to “control effect (control rate)”) read?
The value was “A (the control rate is 100%)”.

For `CCS(=O)(=O)c1cc(C(F)(C(F)(F)F)C(F)(F)F)ccc1-c1nc2cc(C(F)(F)F)nnc2n1C` [Compound 1-66], which “control effect (control rate)” value is on record?
The value was “A (the control rate is 100%)”.

`CCS(=O)(=O)c1cc(C(F)(F)F)cnc1-c1nc2cc(S(=O)(=O)C(C)(C)C)nnc2n1C` [Compound 6-15] was tested. Which “control effect (control rate)” value did it give?
The value was “A (the control rate is 100%)”.

Which “control effect (control rate)” value does the source give for `CC[S+]([O-])c1cc(C(F)(F)F)ccc1-c1nc2cc(C(F)(F)F)nnc2n1C` (stereo not shown) [Compound 1-2] here?
The value was “A (the control rate is 100%)”.

With `CCCSc1cc(C(F)(F)F)ccc1-c1nc2cc(C(F)(F)F)nnc2n1C` [Compound 1-10] as the compound, how does the “control effect (control rate)” value read?
Its value is “A (the control rate is 100%)”.

With `CC(C)Sc1cc(C(F)(F)F)ccc1-c1nc2cc(C(F)(F)F)nnc2n1C` [Compound 1-13] as the compound, how does the “control effect (control rate)” value read?
The value was “A (the control rate is 100%)”.

With `CCS(=O)(=O)c1cc(C(F)(F)F)ccc1-c1nc2cc(SC(F)(F)F)nnc2n1C` [Compound 5-8] as the compound, how does the “control effect (control rate)” value read?
The value was “A (the control rate is 100%)”.

With `CCSc1cc(C(F)(F)F)ccc1-c1nc2cc(Br)nnc2n1C` [Compound 5-9] as the compound, how does the “control effect (control rate)” value read?
The value was “A (the control rate is 100%)”.

`CCS(=O)(=O)c1cc(C(F)(F)F)ccc1-c1nc2cc(C(F)(F)C(F)(F)F)nnc2n1C` [Compound 1-63] was tested. Which “control effect (control rate)” value did it give?
The value was “A (the control rate is 100%)”.

Which “control effect (control rate)” value does the source give for `CC(C)[S+]([O-])c1cc(C(F)(F)F)ccc1-c1nc2cc(C(F)(F)F)nnc2n1C` (stereo not shown) [Compound 1-14] here?
Its value is “A (the control rate is 100%)”.

With `CCSc1cc(C(F)(F)F)ccc1-c1nc2cc(Cl)nnc2n1C` [Compound 1-16] as the compound, how does the “control effect (control rate)” value read?
Its value is “A (the control rate is 100%)”.

`CCSc1cc(SC(F)(F)F)ccc1-c1nc2cc(C(F)(F)F)nnc2n1C` [Compound 4-4] was tested. Which “control effect (control rate)” value did it give?
The value was “A (the control rate is 100%)”.

With `CC(C)S(=O)(=O)c1cc(C(F)(F)F)ccc1-c1nc2cc(C(F)(F)F)nnc2n1C` [Compound 1-15] as the compound, how does the “control effect (control rate)” value read?
Its value is “A (the control rate is 100%)”.

With `CCSc1cc(C(F)(F)F)ccc1-c1nc2cc(C(F)(F)F)nnc2n1C1CCCC1` [Compound 6-1] as the compound, how does the “control effect (control rate)” value read?
The value was “A (the control rate is 100%)”.

How did the “control effect (control rate)” value turn out when `CCS(=O)(=O)c1cc(C#C[Si](C)(C)C)ccc1-c1nc2cc(C(F)(F)F)nnc2n1C` [Compound 6-13] was run?
The value was “A (the control rate is 100%)”.

Which “control effect (control rate)” value does the source give for `C=Cc1ccc(-c2nc3cc(C(F)(F)F)nnc3n2C)c(S(=O)(=O)CC)c1` [Compound 6-14] here?
Its value is “A (the control rate is 100%)”.

For `CC[S+]([O-])c1cc(SC(F)(F)F)ccc1-c1nc2cc(C(F)(F)F)nnc2n1C` (stereo not shown) [Compound 4-5], which “control effect (control rate)” value is on record?
The value was “A (the control rate is 100%)”.

`CCS(=O)(=O)c1cc(I)ccc1-c1nc2cc(C(F)(F)F)nnc2n1C` [Compound 4-12] was tested. Which “control effect (control rate)” value did it give?
Its value is “A (the control rate is 100%)”.

With `CCSc1cc(C(F)(F)F)ccc1-c1nc2cc(C(F)(F)C(F)(F)F)nnc2n1C` [Compound 1-61] as the compound, how does the “control effect (control rate)” value read?
Its value is “A (the control rate is 100%)”.

How did the “control effect (control rate)” value turn out when `CCSc1cc(C(F)(F)F)ccc1-c1nc2cc(SC(F)(F)F)nnc2n1C` [Compound 5-7] was run?
The value was “A (the control rate is 100%)”.

`C#Cc1ccc(-c2nc3cc(C(F)(F)F)nnc3n2C)c(S(=O)(=O)CC)c1` [Compound 6-12] was tested. Which “control effect (control rate)” value did it give?
The value was “A (the control rate is 100%)”.

`CCSc1cc(C(F)(F)C(F)(F)F)ccc1-c1nc2cc(C(F)(F)F)nnc2n1C` [Compound 1-37] was tested. Which “control effect (control rate)” value did it give?
The value was “A (the control rate is 100%)”.

Which “control effect (control rate)” value does the source give for `CCS(=O)(=O)c1cc(C)ccc1-c1nc2cc(C(F)(F)F)nnc2n1C` [Compound 1-33] here?
The value was “A (the control rate is 100%)”.

`CCS(=O)(=O)c1cc(F)ccc1-c1nc2cc(C(F)(F)F)nnc2n1C` [Compound 4-15] was tested. Which “control effect (control rate)” value did it give?
Its value is “A (the control rate is 100%)”.

Which “control effect (control rate)” value does the source give for `CCSc1cc(OC(F)(F)F)ccc1-c1nc2cc(C(F)(F)F)nnc2n1C` [Compound 4-1] here?
The value was “A (the control rate is 100%)”.

With `Cn1c(-c2ccc(C(F)(F)F)cc2SCC(F)(F)F)nc2cc(C(F)(F)F)nnc21` [Compound 3-7] as the compound, how does the “control effect (control rate)” value read?
Its value is “A (the control rate is 100%)”.

`CCS(=O)(=O)c1cc(SC(F)(F)F)ccc1-c1nc2cc(C(F)(F)F)nnc2n1C` [Compound 4-6] was tested. Which “control effect (control rate)” value did it give?
The value was “A (the control rate is 100%)”.

For `CCS(=O)(=O)c1cc(C(F)(F)F)ccc1-c1nc2cc(Br)nnc2n1C` [Compound 5-10], which “control effect (control rate)” value is on record?
Its value is “A (the control rate is 100%)”.

How did the “control effect (control rate)” value turn out when `CCS(=O)(=O)c1cc(SC)ccc1-c1nc2cc(C(F)(F)F)nnc2n1C` [Compound 4-18] was run?
Its value is “A (the control rate is 100%)”.

`CC[S+]([O-])c1cc(C(F)(F)F)ccc1-c1nc2cc(C(F)(F)C(F)(F)F)nnc2n1C` (stereo not shown) [Compound 1-62] was tested. Which “control effect (control rate)” value did it give?
Its value is “A (the control rate is 100%)”.

With `CCS(=O)(=O)c1cc(C(F)(F)F)cnc1-c1nc2cc(C(F)(F)F)nnc2n1C` [Compound 1-6] as the compound, how does the “control effect (control rate)” value read?
Its value is “A (the control rate is 100%)”.

Which “control effect (control rate)” value does the source give for `CCS(=O)(=O)c1ccccc1-c1nc2cc(C(F)(F)F)nnc2n1C` [Compound 1-36] here?
Its value is “A (the control rate is 100%)”.

For `CCS(=O)(=O)c1cc(C(F)(F)F)ccc1-c1nc2cc(Cl)nnc2n1C` [Compound 1-18], which “control effect (control rate)” value is on record?
Its value is “A (the control rate is 100%)”.

How did the “control effect (control rate)” value turn out when `CCS(=O)(=O)c1cc(OC(F)(F)F)ccc1-c1nc2cc(C(F)(F)F)nnc2n1C` [Compound 4-3] was run?
Its value is “A (the control rate is 100%)”.

For `CCS(=O)(=O)c1cc(C(F)(F)F)ccc1-c1nc2cc(C(F)(F)F)nnc2n1CCOC` [Compound 2-12], which “control effect (control rate)” value is on record?
The value was “A (the control rate is 100%)”.

How did the “control effect (control rate)” value turn out when `CCSc1ccccc1-c1nc2cc(C(F)(F)C(F)(F)F)nnc2n1C` [Compound 5-1] was run?
Its value is “A (the control rate is 100%)”.

Which “control effect (control rate)” value does the source give for `CC[S+]([O-])c1cc(OC(F)(F)F)ccc1-c1nc2cc(C(F)(F)F)nnc2n1C` (stereo not shown) [Compound 4-2] here?
Its value is “A (the control rate is 100%)”.

How did the “control effect (control rate)” value turn out when `CCS(=O)(=O)c1cc(C(F)(F)C(F)(F)F)cnc1-c1nc2cc(C(F)(F)F)nnc2n1C` [Compound 1-42] was run?
The value was “A (the control rate is 100%)”.

How did the “control effect (control rate)” value turn out when `CCS(=O)(=O)c1cc(Br)ccc1-c1nc2cc(C(F)(F)F)nnc2n1C` [Compound 4-9] was run?
The value was “A (the control rate is 100%)”.

With `CCS(=O)(=O)c1cc(C(F)(F)C(F)(F)F)ccc1-c1nc2cc(C(F)(F)F)nnc2n1C` [Compound 1-39] as the compound, how does the “control effect (control rate)” value read?
Its value is “A (the control rate is 100%)”.

Which “control effect (control rate)” value does the source give for `CC[S+]([O-])c1ccccc1-c1nc2cc(C(F)(F)F)nnc2n1C` (stereo not shown) [Compound 1-35] here?
The value was “A (the control rate is 100%)”.

Which “control effect (control rate)” value does the source give for `CCCS(=O)(=O)c1cc(C(F)(F)F)ccc1-c1nc2cc(C(F)(F)F)nnc2n1C` [Compound 1-12] here?
Its value is “A (the control rate is 100%)”.

test system: Laodelphax striatella; assay: Test of insecticidal effect on Laodelphax striatella (rice seedling dip); type: in vivo; details: 500 ppm, rice seedlings dipped 30 seconds, 3rd-instar larvae, 8 days after inoculation

How did the “insecticidal effect” value turn out when `CCSc1cc(C(F)(C(F)(F)F)C(F)(F)F)ccc1-c1nc2cc(C(F)(F)F)nnc2n1C` [Compound 1-64] was run?
Its value is “A (the control rate is 100%)”.

With `CCS(=O)(=O)c1ccccc1-c1nc2cc(C(F)(F)C(F)(F)F)nnc2n1C` [Compound 5-3] as the compound, how does the “insecticidal effect” value read?
Its value is “A (the control rate is 100%)”.
